{"source": "PubChem BioAssay AID504774 | Drosophila RNAi Screening Center, 2011", "aim": "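Genes required for cells to withstand methyl methanesulphonate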 (primary screen)", "system": "Drosophila Kc167 cells", "reagents": "long dsRNA against Drosophila genes, about 0.25 µg dsRNA per well", "timing": "about 6 days: 3 days knock-down, then 3 days with or without MMS", "conditions": "methyl methanesulphonate 0.004% (w/v) for 3 days after knock-down", "read-out": "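Viability in wells given MMS, read as ATP luminescence, normalised by quantiles plate by plate and averaged across replicates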", "direction": "mean viability with MMS: higher = more surviving cells after MMS", "note": "The screen tested about 23,000 reagents; shown is an unselected part of those that have a named target and a result. 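Values are quantile-normalised luminescence on an arbitrary scale; higher means more cells surviving MMS.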 The numbers tell different reagents against one gene apart. Names joined by + are all predicted targets of the reagent. Further read-outs or replicates are left out here."}
{"Gene":"oxt (GeneID 38288)","dsRNA no.":1,"mean viability with MMS":3.46e6}
{"Gene":"Ptip (GeneID 39552)","dsRNA no.":1,"mean viability with MMS":3.41e6}
{"Gene":"Ptip (GeneID 39552)","dsRNA no.":2,"mean viability with MMS":3.21e6}
{"Gene":"nbs (GeneID 44259)","dsRNA no.":1,"mean viability with MMS":3.60e6}
{"Gene":"CG10132 (GeneID 35239)","dsRNA no.":1,"mean viability with MMS":3.65e6}
{"Gene":"TotB (GeneID 42474)","dsRNA no.":1,"mean viability with MMS":3.55e6}
{"Gene":"tau (GeneID 326116)","dsRNA no.":1,"mean viability with MMS":3.46e6}
{"Gene":"tau (GeneID 326116)","dsRNA no.":2,"mean viability with MMS":3.56e6}
{"Gene":"l(1)G0469 (GeneID 32371)","dsRNA no.":1,"mean viability with MMS":3.45e6}
{"Gene":"l(1)G0469 (GeneID 32371)","dsRNA no.":2,"mean viability with MMS":3.68e6}
{"Gene":"CG13606 (GeneID 42873)","dsRNA no.":1,"mean viability with MMS":3.65e6}
{"Gene":"Amy-d (GeneID 36932)","dsRNA no.":1,"mean viability with MMS":3.55e6}
{"Gene":"CG15756 (GeneID 32308)","dsRNA no.":1,"mean viability with MMS":3.65e6}
{"Gene":"Oscillin (GeneID 33783)","dsRNA no.":1,"mean viability with MMS":3.55e6}
{"Gene":"cindr (GeneID 43654)","dsRNA no.":1,"mean viability with MMS":3.45e6}
{"Gene":"cindr (GeneID 43654)","dsRNA no.":2,"mean viability with MMS":3.40e6}

An excerpt taken from the entries so far, as a working copy:
{"Gene":"Ptip (GeneID 39552)","dsRNA no.":1,"mean viability with MMS":3.41e6}
{"Gene":"Ptip (GeneID 39552)","dsRNA no.":2,"mean viability with MMS":3.21e6}

The results go on:
{"Gene":"Best2 (GeneID 38727)","dsRNA no.":1,"mean viability with MMS":3.51e6}
{"Gene":"PolH (GeneID 40438)","dsRNA no.":1,"mean viability with MMS":3.57e6}
{"Gene":"CG13321 (GeneID 36430)","dsRNA no.":1,"mean viability with MMS":3.49e6}
{"Gene":"CG3529 (GeneID 39093)","dsRNA no.":1,"mean viability with MMS":3.48e6}
{"Gene":"RpLP0-like (GeneID 36058)","dsRNA no.":1,"mean viability with MMS":3.57e6}
{"Gene":"CG2991 (GeneID 33488)","dsRNA no.":1,"mean viability with MMS":3.55e6}
{"Gene":"CG15546 (GeneID 43659)","dsRNA no.":1,"mean viability with MMS":3.42e6}
{"Gene":"CG15546 (GeneID 43659)","dsRNA no.":2,"mean viability with MMS":3.46e6}
{"Gene":"Klp10A (GeneID 32049)","dsRNA no.":1,"mean viability with MMS":3.62e6}
{"Gene":"Dhx15 (GeneID 35654)","dsRNA no.":1,"mean viability with MMS":3.47e6}
{"Gene":"CG4829 (GeneID 32672)","dsRNA no.":1,"mean viability with MMS":3.68e6}
{"Gene":"CG14042 + SP555","dsRNA no.":1,"mean viability with MMS":3.33e6}
{"Gene":"CG14042 + SP555","dsRNA no.":2,"mean viability with MMS":3.62e6}
{"Gene":"wcy (GeneID 32690)","dsRNA no.":1,"mean viability with MMS":3.47e6}
{"Gene":"NijB (GeneID 40057)","dsRNA no.":1,"mean viability with MMS":2.13e6}
{"Gene":"mRpL1 (GeneID 40980)","dsRNA no.":1,"mean viability with MMS":3.44e6}
{"Gene":"ATPsynCF6 (GeneID 42759)","dsRNA no.":1,"mean viability with MMS":3.48e6}
{"Gene":"CG15628 (GeneID 33681)","dsRNA no.":1,"mean viability with MMS":2.92e6}
{"Gene":"CG15628 (GeneID 33681)","dsRNA no.":2,"mean viability with MMS":3.52e6}
{"Gene":"CG9269 (GeneID 41663)","dsRNA no.":1,"mean viability with MMS":3.52e6}
{"Gene":"Peritrophin-15b (GeneID 50432)","dsRNA no.":1,"mean viability with MMS":3.69e6}
{"Gene":"spz6 (GeneID 37956)","dsRNA no.":1,"mean viability with MMS":3.11e6}
{"Gene":"Tango2 (GeneID 32319)","dsRNA no.":1,"mean viability with MMS":3.53e6}
{"Gene":"Tango2 (GeneID 32319)","dsRNA no.":2,"mean viability with MMS":3.44e6}
{"Gene":"CG34417 (GeneID 31591)","dsRNA no.":1,"mean viability with MMS":3.53e6}
{"Gene":"CG34417 (GeneID 31591)","dsRNA no.":2,"mean viability with MMS":3.61e6}
{"Gene":"CG34417 (GeneID 31591)","dsRNA no.":3,"mean viability with MMS":3.53e6}
{"Gene":"Sytalpha (GeneID 35068)","dsRNA no.":1,"mean viability with MMS":3.49e6}
{"Gene":"NdufA3 (GeneID 50405)","dsRNA no.":1,"mean viability with MMS":3.64e6}
